Measured values: PMC9417938

Protein sequences, listed by entry. Tags and fused reporters are not part of them.
UniProt Q8N884, whole entry: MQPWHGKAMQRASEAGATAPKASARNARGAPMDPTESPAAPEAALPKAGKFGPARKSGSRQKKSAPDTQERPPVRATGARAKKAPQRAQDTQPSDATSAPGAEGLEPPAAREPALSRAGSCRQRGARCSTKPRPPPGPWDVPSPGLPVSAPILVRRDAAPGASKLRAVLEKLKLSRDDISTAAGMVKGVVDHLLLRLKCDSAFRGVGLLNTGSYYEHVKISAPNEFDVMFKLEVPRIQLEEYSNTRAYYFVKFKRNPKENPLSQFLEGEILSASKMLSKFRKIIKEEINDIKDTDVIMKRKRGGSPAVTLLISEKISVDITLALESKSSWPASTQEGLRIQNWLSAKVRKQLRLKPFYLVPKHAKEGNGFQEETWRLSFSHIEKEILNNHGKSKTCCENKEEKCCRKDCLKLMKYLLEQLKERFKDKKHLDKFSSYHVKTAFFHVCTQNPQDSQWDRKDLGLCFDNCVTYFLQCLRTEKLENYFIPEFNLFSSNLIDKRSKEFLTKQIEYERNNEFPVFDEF

Experiments:
[1] = biological target: full-length human cGAS (hcGAS-FL) (human) (UniProt Q8N884); assay: in vitro phase separation (fluorescence microscopy); conditions: 20 mM Tris-HCl pH 7.5, 300 mM NaCl, condensation read-out; Phase separation: 20 mM Tris-HCl pH 7.5, 150 mM NaCl (45-bp ISD, phase diagrams) or 300 mM NaCl (100-bp DNA), 1 mg/ml BSA; recombinant protein; residues 1-522; label: Cy3 on sense strand (2% labeled)
[2] = biological target: full-length human cGAS (hcGAS-FL) (human) (UniProt Q8N884); assay: in vitro phase separation (confocal microscopy); conditions: physiological buffer with or without 200 uM Zn2+, Zn2+ promotes condensation; Phase separation: 20 mM Tris-HCl pH 7.5, 150 mM NaCl (45-bp ISD, phase diagrams) or 300 mM NaCl (100-bp DNA), 1 mg/ml BSA; recombinant protein; residues 1-522; label: Cy3 on sense strand

| Sequence | binding result [1] | binding result [2] |
| --- | --- | --- |
| ACATCTAGTACATGTCTAGTCAGTATCTAGTGATTATCTAGACATACATCTAGTACATGTCTAGTCAGTATCTAGTGATTATCTAGACATGGACTCATCC (double strand) [100-bp Cy3-DNA] | binds | – |
| TACAGATCTACTAGTGATCTATGACTGATCTGTACATGATCTACA (double strand) [45-bp Cy3-ISD] | – | binds |

Construct, isoform or probe ends are uncertain for at least one entry. At least one verdict was read from the data and is not stated in words by the source.
